This assay is described as follows: qHTS Assay for Lipid Storage Modulators in Drosophila S3 Cells.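 As to cell number change: cells counted by Cell Tracker Red CMTPX staining in the red channel.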 The following applies: BODIPY lipid droplet fluorescence, 18-24 h; for cell number change: measured here: cell count max response, cells fed with added oleic acid. Summed up: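 Drosophila S3 cells loaded with oleic acid (400 uM, as added) and compounds at several concentrations; lipid droplets imaged by 488-nm laser-scanning cytometry, 500–530 nm intensity and object ratio to cell channel. Percent activity normalized to 20 uM Triacsin C.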
In general terms: In qHTS, concentration-response curves come from the screen itself.

The mark [1] stands for this setting: measured here: cell number channel AC50, cells fed with added oleic acid.
Setting [2] is: measured here: lipid fluorescence (Fed channel) AC50, cells fed with added oleic acid.

For orientation: AC50 means the concentration at which the activity in the assay is half-maximal. Higher therefore signals activity only at high concentration.

The other results are listed elsewhere or left out. Shown are side measurements of this screen, not its main read-out; they come without a call. Compounds called inactive in the main read-out are mostly missing here. Potencies come from curve fits of mixed quality, noted in brackets.

As to `Cc1ccc2nc(C)cc(C(=O)OCC(=O)Nc3cccnc3Cl)c2c1`, the cell number change was -14.9%. For the same compound, the AC50 under setting [1] was 0.731 µM [rising, single point]. For the compound `CCN(CC)CCCNC(=O)c1cc2nc(-c3ccccc3)cc(C(F)(F)F)n2n1`, the cell number change stood at 12.5%. Moreover, under setting [2], the AC50 was 1.64 µM [rising, partial curve]. Consider `COc1cccc(Cn2cnc3c(NS(=O)(=O)c4ccc(Cl)cc4)c(C)c(C)cc32)c1`, for which the AC50 by setting is: under setting [1], 2.06 µM [rising, partial curve]; under setting [2], 0.731 µM [rising, full curve].

Turning to `O=C(CSc1nc2ccccc2[nH]1)N1CCN(S(=O)(=O)c2ccc(Cl)cc2)CC1`, the cell number change was found to be 13.4%. Moreover, the AC50 under setting [1] was 0.184 µM [rising, full curve, poor fit].

`CC(C)CCN(C(=O)COc1ccc(C#N)cc1)c1c(N)n(Cc2ccccc2)c(=O)[nH]c1=O`: the AC50 under setting [2] is 29.1 µM [falling, single point].

Take `CCCCCCCCCOC(=O)C[n+]1csc(CCO)c1C`: the cell number change was 12.7%. Moreover, the AC50 under setting [1] was 0.517 µM [falling, single point]. Besides, the AC50 under setting [2] is 18.4 µM [rising, single point].

Take `c1ccc2c(c1)CCCN2c1nc2ccccc2n2cnnc12`: the cell number change is -4.88%. Moreover, the AC50 under setting [2] was 0.58 µM [rising, full curve]. Turning to `CC(Cc1n[nH]c(=S)n1N)c1ccccc1` (centres undefined), the AC50 runs as follows: under setting [1], 6.51 µM [falling, single point]; under setting [2], 6.51 µM [falling, single point]. Take `Cc1oc(-c2ccc(Cl)cc2)nc1CS(=O)CC(=O)NCc1ccc2c(c1)OCO2` (centres undefined): the cell number change was determined as 10.1%. Further, the AC50 under setting [2] was 8.2 µM [falling, single point]. Take `CCSc1nnc(NC(=O)CN(C)S(=O)(=O)c2ccc(F)cc2)s1`: the cell number change was 14.1%. The same measure, in the same setting: then `O=C(COC(=O)c1ccc(O)cc1)Nc1cccc(S(=O)(=O)NC2=NCCCCC2)c1`, with 18.1%; and `CCn1c(CNC(=O)c2ccccc2F)cc2cc(C)ccc21`, with -4.91%. Still for that read-out and setting: then `Cc1ccccc1-c1n[nH]c(=S)n1Cc1ccccc1`, with 0.838%. Regarding `Cc1ccc(-c2cc(C(=O)N(C)Cc3cnn(C)c3C)c3cc(Br)ccc3n2)cc1`, the cell number change was -10.4%. In addition, under setting [2], the AC50 is 18.4 µM [rising, single point]. As for `COc1cc(C(=O)Nc2sc3c(c2C(=O)NCc2ccco2)CCCC3)cc(OC)c1OC`, the cell number change was -72.7%. Also, the AC50 under setting [1] is 6.51 µM [falling, partial curve].

Turning to `N#CC1=C(N)SC(N)=C(C#N)C1CCc1ccccc1`, the AC50 is, setting by setting: under setting [1], 6.51 µM [rising, single point]; under setting [2], 4.11 µM [rising, partial curve]. On to `COc1ccc(CCN2CC(C(=O)Nc3nnc(Cc4ccccc4)s3)CC2=O)cc1OC` (centres undefined), for which the cell number change was -0.796%. In addition, the AC50 under setting [2] was 0.0164 µM [rising, full curve, poor fit]. For the compound `CSc1nc2ccccc2cc1/C=C(\C#N)c1ccccc1`, the cell number change stood at 78.3%. The AC50 under setting [1] is 18.4 µM [rising, single point]. Regarding `O=S1(=O)N=C(Nc2ccc(S(=O)(=O)N3CCCCC3)cc2)c2ccccc21`, the cell number change was -14%. Turning to `Cc1ccc(S(=O)(=O)Nc2cc(=O)[nH]c(SCC(=O)Nc3ccccc3C(F)(F)F)n2)cc1`, the cell number change was -0.952%. For `O=C(NCc1ccccc1Cl)C1CCC(=O)N(C2CCCC2)C1` (centres undefined), the cell number change worked out at 6.57%. Moreover, the AC50 under setting [2] is 29.1 µM [rising, single point]. With `CC(C)c1ccc(/C=N/n2nnnc2Nc2ccccc2)cc1`, the cell number change amounted to 19%. Take `OC(COc1ccc(OCC(O)CN2CCCCC2)cc1)CN1CCCCC1` (centres undefined): the cell number change was -5.11%. Moreover, the AC50 under setting [2] is 6.51 µM [falling, partial curve, poor fit].

In the case of `Cc1ccc(CN2CCN(Cc3ccc(-n4cccn4)cc3)CC2CCO)cc1` (centres undefined), the cell number change worked out at 8.1%. The AC50 under setting [2] is 6.51 µM [rising, partial curve]. With `Cc1cc(OC(=O)N2CCCCC2)cc(C)c1Cl`, the cell number change is -27.8%. Besides, the AC50 under setting [2] was 29.1 µM [rising, single point]. On to `COc1ccc(CCNC(=O)CCCN2C(=O)C(c3ccccc3)Oc3cccnc32)cc1OC` (centres undefined), for which the cell number change came out at 2.12%. Still for that read-out and setting: under `CC(C)NC(=O)NC(=O)COC(=O)c1ccc(OC(F)(F)F)cc1` stands -24.2%. For the compound `Cc1cc(=O)oc2c3c(cc(OCC(=O)NCc4ccccc4)c12)OC(C)(C)CC3`, the cell number change is -28.5%. Same read-out and setting: under `CCOC(=O)CNC(=O)Cn1cnc2sc(C)c(S(=O)(=O)N3CCOCC3)c2c1=O` stands -7.69%. As for `O=C(CCNS(=O)(=O)c1cccc2nsnc12)Nc1ccc2c(c1)OCCO2`, the cell number change turned out to be 58%. Moreover, the AC50 under setting [1] is 14.6 µM [rising, partial curve]. On to `Cc1cccc(CC(=O)N2CCCC2)c1`, for which the cell number change is -9.12%. Also, the AC50 under setting [2] was 2.06 µM [falling, single point]. In the case of `COc1ccc(C(=O)NCCS(=O)(=O)N2CCN(Cc3ccccc3)CC2)cc1`, the AC50 under setting [2] is 1.84 µM [falling, partial curve]. `CCCCNC(=O)CCn1c(=O)c2ccccc2n(Cc2cc(C)ccc2C)c1=O`: the cell number change was -18.7%. The concentration at half-maximal activity (AC50) under setting [2] is 16.4 µM [falling, partial curve].

Turning to `C[C@H](NC(=O)[C@@H]1Cc2ccccc2CN1)C(=O)NC1CCCC1`, the AC50 under setting [2] was 18.4 µM [falling, single point]. As to `CC(NC(=O)c1ccc2c(c1)OCCO2)c1ccc(S(N)(=O)=O)cc1` (centres undefined), the cell number change amounted to 12.7%. `Cc1cc(SCC(=O)c2cccs2)n2nc(C)c(-c3ccccc3)c2n1`: the cell number change is -13.5%. Also, the AC50 under setting [2] is 29.1 µM [falling, single point]. Take `CN1C(=S)SC(/[N+]([O-])=C\c2cccs2)C1(C)C` (centres undefined): the cell number change came to 36.8%. In addition, the AC50 under setting [1] was 29.1 µM [rising, single point].

As to `COc1ccc(-c2csc(NC(=S)NC(=O)/C=C/c3ccccc3)n2)cc1Br`, the cell number change came to 20.7%. Also, the AC50 under setting [1] was 0.92 µM [falling, full curve, poor fit]. Besides, the AC50 under setting [2] was 0.731 µM [falling, full curve]. Turning to `CCCCCCc1ccc(N2C[C@H](CCCCC)[C@@H](CC(=O)NCc3ccccc3)C2=O)cc1`, the cell number change amounted to 42.4%. The AC50 under setting [1] is 29.1 µM [rising, single point]. Consider `CCC(=O)NC(=S)Nc1ccc(NC(=O)COc2ccc([N+](=O)[O-])cc2)cc1`, for which the cell number change stood at 32.3%. For the same compound, the AC50 under setting [1] is 25.9 µM [rising, single point]. As to `Cc1cccc2c1CC(C)(C)N/C2=C\C(N)=O`, the cell number change was -9.88%. Moreover, the AC50 under setting [1] is 0.103 µM [falling, partial curve, poor fit]. For the compound `COc1cccc(C(=O)NCC(=O)OCC(=O)Nc2ncc(Cl)cc2Cl)c1`, under setting [2], the AC50 is 6.51 µM [rising, single point]. On to `COc1ccc(N2CCN(S(=O)(=O)c3c(C)[nH]c(C)c3C(=O)N3CCCCC3)CC2)cc1`, for which the cell number change was -3.29%. Also, the concentration at half-maximal activity (AC50) under setting [2] was 2.59 µM [falling, single point]. With `O=C(Nc1nc(-c2ccccc2)cs1)C1c2ccccc2Oc2ccccc21`, the cell number change is -28.2%. `Cc1ccc(OCC(=O)Nc2cc(S(=O)(=O)N3CCCCC3)ccc2C)c([N+](=O)[O-])n1`: the cell number change is -36.5%. For the same compound, the AC50 under setting [1] is 32.6 µM [falling, single point]. In addition, the AC50 under setting [2] is 32.6 µM [falling, partial curve]. With `O=[N+]([O-])c1cccc(/C=N/n2cnnc2)c1O`, the cell number change amounted to 29.6%. Under setting [2], the AC50 is 10.3 µM [rising, partial curve, poor fit]. Consider `CS(=O)(=O)c1ccc(Cl)c(NC(=O)COC(=O)CNC(=O)c2sc3ccccc3c2Cl)c1`, for which the cell number change is -3.62%. Turning to `Cc1oc2cc3oc(=O)c(CCC(=O)N[C@H](C(=O)O)C(C)C)c(C)c3cc2c1C`, the cell number change is 18.1%. Further, the AC50 under setting [2] is 6.51 µM [rising, partial curve, poor fit]. Turning to `C/C(=N\NC(=O)c1nnn(-c2nonc2N)c1CN1CCCCCC1)c1ccc(Br)cc1`, the cell number change is -10.3%. Also, the AC50 under setting [1] is 6.51 µM [rising, single point]. Moreover, the AC50 under setting [2] is 0.13 µM [rising, full curve]. As for `CCc1c(C(=O)Nc2cc(C)ccc2OC)[nH]c(C)c1C(C)=O`, the AC50 runs as follows: under setting [1], 4.11 µM [rising, partial curve]; under setting [2], 5.17 µM [rising, partial curve]. As to `CNc1nc2c(c(=O)n(C)c(=O)n2C)n1Cc1ccccc1`, the cell number change was -31.4%. The AC50 under setting [1] is 7.31 µM [falling, partial curve, poor fit]. `Cc1ccc2cc(CN(Cc3ccco3)C(=O)c3ccccc3)c(=O)[nH]c2c1C`: the cell number change was -10.6%. For the same compound, under setting [2], the AC50 is 1.64 µM [rising, single point]. Regarding `Cc1ccc(NC(=O)CCNC(=O)c2ccc(Br)cc2)cc1S(=O)(=O)N1CCCCCC1`, the cell number change was -16.1%. Besides, the AC50 under setting [2] was 29.1 µM [falling, single point]. `Cc1cc(C)n(-c2nc3c(c(=O)[nH]c(=O)n3C)n2CC(O)COc2ccccc2)n1` (centres undefined): the cell number change was -3.1%. Regarding `O=C(CSc1nnc(Cc2ccccc2)o1)c1ccc2c(c1)OCO2`, the cell number change turned out to be 62.7%. Besides, the AC50 under setting [1] was 13 µM [rising, partial curve]. As for `O=C(Cc1cccs1)N1CCCC(c2nc3c(nnn3Cc3ccc(F)cc3)c(=O)[nH]2)C1` (centres undefined), the cell number change is -19.2%. Besides, the AC50 under setting [2] was 29.1 µM [falling, single point].

Regarding `Cc1ccc(-n2c(C)cc(C(=O)COc3cccnc3[N+](=O)[O-])c2C)cc1`, the cell number change was -21.5%. The AC50 under setting [2] is 29.1 µM [falling, single point].

Consider `CCc1cccc2c(C(=O)COC(=O)c3ccc(O)cc3)c[nH]c12`, for which the cell number change was -43.2%. Besides, under setting [1], the half-maximal activity concentration (AC50) is 36.6 µM [falling, partial curve, poor fit]. Besides, the AC50 under setting [2] was 1.46 µM [falling, full curve].

For the compound `CCNC(=O)CC1C(=O)N(c2ccccc2)C(=O)N1CCc1ccc(OC)cc1` (centres undefined), the cell number change was 48.2%. In addition, under setting [1], the AC50 was 20.6 µM [rising, single point]. On to `Cc1cc(C(C2C(=O)CC(C)(C)CC2=O)C2C(=O)CC(C)(C)CC2=O)cc(C)c1OC(F)F`, for which the cell number change was -31.6%. Under setting [2], the AC50 is 0.398 µM [falling, single point].

With `CCCCn1c(SCC(=O)c2ccc(OC)c(OC)c2)nc2cc(S(N)(=O)=O)ccc21`, the cell number change came out at 104%. The AC50 under setting [1] is 0.651 µM [rising, single point]. Moreover, the AC50 under setting [2] was 1.84 µM [rising, partial curve].

Source of the values: PubChem BioAssay AID2685 (National Center for Advancing Translational Sciences (NCATS), 2010).
